Experimental data: patent publication US7919261B2, “Methods for predicting treatment response based on the expression profiles of protein and transcription biomarkers” (Merck Sharp & Dohme Corp., priority 2006, dated 2011)
Where two headings read alike, the source gives them in different places.

Assays:
Experiment in all cases: CellTiter-Blue Cell Viability Assay
HH = type: cell-based, human; details: cell line HH, Lymphoma- CTCL, read-out: IC50 (μM) (Cell Titre-Blue assay)
Experimental: (§1) For the proliferation assay, cell lines were seeded on 96-well plates (Corning). After 24 hours of plating, the 96-well plates were treated with vorinostat (SAHA) (0, 0.004-30 uM). The CellTiter-Blue Reagent™ was added to each of the wells. Experiments were performed in triplicate. The plates were then placed at 37° C. for two hours, and subsequently read on the Flex Station II […] from Molecular Devices. The IC50 values were calculated using the Sigma Plot software. Combination index for the studies to test efficacy of Vorinostat and JAK inhibitors was calculated with CalcuSyn software (is there a web site for this or a reference that describes the software)
(§2) An expanded set of 50 human cell lines, including the twelve cell lines listed in Table 1, were assembled (Table 2), that represent a range of lymphoid tumor types (including 10 diffuse large B cell lymphoma, 10 Burkitt lymphoma, 8 multiple myeloma and 5 CTCL). As detailed in Example 1, each of these cell lines was cultured in vitro and response to vorinostat was assessed at 8 different concentrations (0 and 0.04 to 30 micromolar) at 24 hr using the ApoONE™ Homogeneous Caspase-3/7 Assay (Promega) and at 24, 48 and 72 h using the CellTiter-Blue™ Cell Viability Assay (Promega). The CellTiter Blue assay was used to determine the vorinostat IC50 for each cell line.

BC_1 = type: cell-based; details: Homo sapiens, BC1; cell line BC_1, Lymphoma - B cell PEL; read-out: IC50 (μM) (Cell Titre-Blue assay)
Experimental: as §1, §2

BC_3 = type: cell-based; details: Homo sapiens, BC-3; cell line BC_3, Lymphoma- B Cell; read-out: IC50 (μM) (Cell Titre-Blue assay)
Experimental: as §1, §2

CA46 = type: cell-based; details: Homo sapiens; cell line CA46, Lymphoma - Burkitts; read-out: IC50 (μM) (Cell Titre-Blue assay)
Experimental: as §1, §2

DOHH_2 = type: cell-based; details: Homo sapiens, DOHH-2; cell line DOHH_2, Lymphoma Follicular; read-out: IC50 (μM) (Cell Titre-Blue assay)
Experimental: as §1, §2

Daudi = type: cell-based; details: Homo sapiens; cell line Daudi, Lymphoma - Burkitts; read-out: IC50 (μM) (Cell Titre-Blue assay)
Experimental: as §1, §2

EB_1 = type: cell-based; details: Homo sapiens; cell line EB_1 (EB1), Lymphoma - Burkitts; read-out: IC50 (μM) (Cell Titre-Blue assay)
Experimental: as §1, §2

EB_2 = type: cell-based; details: Homo sapiens, EB2; cell line EB_2, Lymphoma - Burkitts; read-out: IC50 (μM) (Cell Titre-Blue assay)
Experimental: as §1, §2

EB_3 = type: cell-based; details: Homo sapiens, EB-3; cell line EB_3, Lymphoma - Burkitts; read-out: IC50 (μM) (Cell Titre-Blue assay)
Experimental: as §1, §2

EJM = type: cell-based; details: Homo sapiens; cell line EJM, Multiple Myeloma; read-out: IC50 (μM) (Cell Titre-Blue assay)
Experimental: as §1, §2

Farage = type: cell-based; details: Homo sapiens; cell line Farage, Lymphoma- non Hodgkins B cell; read-out: IC50 (μM) (Cell Titre-Blue assay)
Experimental: as §1, §2

GRANTA_519 = type: cell-based; details: Homo sapiens, Granta-519; cell line GRANTA_519, Lymphoma - Mantle cell; read-out: IC50 (μM) (Cell Titre-Blue assay)
Experimental: as §1, §2

H9 = type: cell-based; details: Homo sapiens; cell line H9, Lymphoma - CTCL; read-out: IC50 (μM) (Cell Titre-Blue assay)
Experimental: as §1, §2

HT = type: cell-based; details: Homo sapiens; cell line HT (1), Lymphoma DLBCL; read-out: IC50 (μM) (Cell Titre-Blue assay)
Experimental: as §1, §2

Hs_445 = type: cell-based; details: Homo sapiens, Hs 445; cell line Hs_445, Lymphoma - Hodgkins; read-out: IC50 (μM) (Cell Titre-Blue assay)
Experimental: as §1, §2

JEKO_1 = type: cell-based; details: Homo sapiens, JeKo-1; cell line JEKO_1, Lymphoma - Mantle cell; read-out: IC50 (μM) (Cell Titre-Blue assay)
Experimental: as §1, §2

JM1 = type: cell-based; details: Homo sapiens; cell line JM1, Lymphoma - Pre B lymphoblast; read-out: IC50 (μM) (Cell Titre-Blue assay)
Experimental: as §1, §2

Jiyoye = type: cell-based; details: Homo sapiens; cell line Jiyoye, Lymphoma - Burkitts; read-out: IC50 (μM) (Cell Titre-Blue assay)
Experimental: as §1, §2

KARPAS_299 = type: cell-based; details: Homo sapiens; cell line KARPAS_299 (KARPAS-299), Lymphoma - ALCL; read-out: IC50 (μM) (Cell Titre-Blue assay)
Experimental: as §1, §2

LP-1 = type: cell-based; details: Homo sapiens; cell line LP-1, Multiple Myeloma; read-out: IC50 (μM) (Cell Titre-Blue assay)
Experimental: as §1, §2

MC116 = type: cell-based; details: Homo sapiens; cell line MC116, Lymphoma - undifferentiated; read-out: IC50 (μM) (Cell Titre-Blue assay)
Experimental: as §1, §2

MJ = type: cell-based; details: Homo sapiens; cell line MJ, Lymphoma- CTCL; read-out: IC50 (μM) (Cell Titre-Blue assay)
Experimental: as §1, §2

MOLP_8 = type: cell-based; details: Homo sapiens, MOLP-8; cell line MOLP_8, Multiple Myeloma; read-out: IC50 (μM) (Cell Titre-Blue assay)
Experimental: as §1, §2

NAMALWA = type: cell-based; details: Homo sapiens; cell line NAMALWA, Lymphoma - Burkitts; read-out: IC50 (μM) (Cell Titre-Blue assay)
Experimental: as §1, §2

NCI_H929 = type: cell-based; details: Homo sapiens, NCI-H929; cell line NCI_H929, Multiple Myeloma; read-out: IC50 (μM) (Cell Titre-Blue assay)
Experimental: as §1, §2

NC_37 = type: cell-based; details: Homo sapiens, NC-37; cell line NC_37, Lymphoma - Burkitts; read-out: IC50 (μM) (Cell Titre-Blue assay)
Experimental: as §1, §2

Pfeiffer = type: cell-based; details: Homo sapiens; cell line Pfeiffer (1), Lymphoma DLBCL; read-out: IC50 (μM) (Cell Titre-Blue assay)
Experimental: as §1, §2

RC_K8 = type: cell-based; details: Homo sapiens; cell line RC_K8 (RCK8), Lymphoma - DLBCL; read-out: IC50 (μM) (Cell Titre-Blue assay)
Experimental: as §1, §2

RPMI6666 = type: cell-based; details: Homo sapiens, RPMI-6666; cell line RPMI6666, Lymphoma - Hodgkins; read-out: IC50 (μM) (Cell Titre-Blue assay)
Experimental: as §1, §2

RPMI8226 = type: cell-based; details: Homo sapiens, RPMI-8226; cell line RPMI8226, Multiple Myeloma; read-out: IC50 (μM) (Cell Titre-Blue assay)
Experimental: as §1, §2

Raji = type: cell-based; details: Homo sapiens; cell line Raji, Lymphoma - Burkitts; read-out: IC50 (μM) (Cell Titre-Blue assay)
Experimental: as §1, §2

Ramos_RA_1 = type: cell-based; details: Homo sapiens; cell line Ramos_RA_1, Lymphoma - Burkitts; read-out: IC50 (μM) (Cell Titre-Blue assay)
Experimental: as §1, §2

SC_1 = type: cell-based; details: Homo sapiens, SC-1; cell line SC_1, Lymphoma - Follicular; read-out: IC50 (μM) (Cell Titre-Blue assay)
Experimental: as §1, §2

SR_786 = type: cell-based; details: Homo sapiens, SR-786; cell line SR_786 (SR786), Lymphoma - ALCL; read-out: IC50 (μM) (Cell Titre-Blue assay)
Experimental: as §1, §2

ST486 = type: cell-based; details: Homo sapiens; cell line ST486, Lymphoma - Burkitts; read-out: IC50 (μM) (Cell Titre-Blue assay)
Experimental: as §1, §2

SUP_M2 = type: cell-based; details: Homo sapiens, SUP-M2; cell line SUP_M2 (SUPM2), Lymphoma - ALCL; read-out: IC50 (μM) (Cell Titre-Blue assay)
Experimental: as §1, §2

SUP_T1 = type: cell-based; details: Homo sapiens, SUP-T1; cell line SUP_T1 (SUPT1), Lymphoma -T cell; read-out: IC50 (μM) (Cell Titre-Blue assay)
Experimental: as §1, §2

SU_DHL_1 = type: cell-based; details: Homo sapiens, SU-DHL-1; cell line SU_DHL_1, Lymphoma - ALCL; read-out: IC50 (μM) (Cell Titre-Blue assay)
Experimental: as §1, §2

Toledo = type: cell-based; details: Homo sapiens, cell line Toledo (avg), Lymphoma DLBCL, read-out: IC50 (μM) (Cell Titre-Blue assay)
Experimental: as §1, §2

U266 = type: cell-based; details: Homo sapiens, U-266; cell line U266, Multiple Myeloma; read-out: IC50 (μM) (Cell Titre-Blue assay)
Experimental: as §1, §2

U_937 = type: cell-based; details: Homo sapiens, U-937; cell line U_937, Lymphoma - histiocytic; read-out: IC50 (μM) (Cell Titre-Blue assay)
Experimental: as §1, §2

`O=C(CCCCCCC(=O)Nc1ccccc1)NO` [vorinostat, suberoylanilide hydroxamic acid] was tested, and the IC50 (HH; Homo sapiens, HH) was 0.89 µM, the IC50 (HH) was 0.89 µM and the IC50 (BC_1) was 1.27 µM. It also gave an IC50 (BC_3) of 0.63 µM, an IC50 (CA46) of 0.54 µM and an IC50 (DOHH_2) of 0.71 µM. It also gave an IC50 (Daudi) of 4.1 µM, an IC50 (EB_1) of 6.4 µM and an IC50 (EB_2) of 9.96 µM. The IC50 (EB_3) was 3.36 µM, the IC50 (EJM) was 3.24 µM and the IC50 (Farage) was 2.59 µM. It also gave an IC50 (GRANTA_519) of 3.4 µM, an IC50 (H9) of 1.28 µM and an IC50 (HT) of 2.05 µM. It also gave an IC50 (Hs_445) of 3.69 µM, an IC50 (JEKO_1) of 0.812 µM and an IC50 (JM1) of 0.49 µM. The IC50 (Jiyoye) was 3.7 µM, the IC50 (KARPAS_299) was 1.73 µM and the IC50 (LP-1) was 0.97 µM. For the same compound, the IC50 (MC116) was 0.9 µM, the IC50 (MJ) was 2.78 µM and the IC50 (MOLP_8) was 1.13 µM. The IC50 (NAMALWA) was 0.84 µM, the IC50 (NCI_H929) was 1.4 µM and the IC50 (NC_37) was 2.36 µM. The IC50 (Pfeiffer) was 2.57 µM, the IC50 (RC_K8) was 4.55 µM and the IC50 (RPMI6666) was greater than 30 µM. The IC50 (RPMI8226) was 1.29 µM, the IC50 (Raji) was 1.36 µM and the IC50 (Ramos_RA_1) was 1.24 µM. For the same compound, the IC50 (SC_1) was 0.93 µM, the IC50 (SR_786) was 14.4 µM and the IC50 (ST486) was 0.78 µM. The IC50 (SUP_M2) was 14.5 µM, the IC50 (SUP_T1) was 0.32 µM and the IC50 (SU_DHL_1) was 9.07 µM. It also gave an IC50 (Toledo) of 0.72 µM, an IC50 (U266) of 2.47 µM and an IC50 (U_937) of 1.44 µM.
